Measured values from patent publication US7186408.
Results are given in words; binding and its absence hold for the method and conditions named. Some binding calls cover weakened binding; strength is not graded here. Where a sequence is shown, tags or fusion partners need not be part of it.

Protein sequences, listed by entry. Tags and fused reporters are not part of them. Lines headed by an entry give the natural chain unless they say otherwise; changes in a name come on top.
UniProt Q60846: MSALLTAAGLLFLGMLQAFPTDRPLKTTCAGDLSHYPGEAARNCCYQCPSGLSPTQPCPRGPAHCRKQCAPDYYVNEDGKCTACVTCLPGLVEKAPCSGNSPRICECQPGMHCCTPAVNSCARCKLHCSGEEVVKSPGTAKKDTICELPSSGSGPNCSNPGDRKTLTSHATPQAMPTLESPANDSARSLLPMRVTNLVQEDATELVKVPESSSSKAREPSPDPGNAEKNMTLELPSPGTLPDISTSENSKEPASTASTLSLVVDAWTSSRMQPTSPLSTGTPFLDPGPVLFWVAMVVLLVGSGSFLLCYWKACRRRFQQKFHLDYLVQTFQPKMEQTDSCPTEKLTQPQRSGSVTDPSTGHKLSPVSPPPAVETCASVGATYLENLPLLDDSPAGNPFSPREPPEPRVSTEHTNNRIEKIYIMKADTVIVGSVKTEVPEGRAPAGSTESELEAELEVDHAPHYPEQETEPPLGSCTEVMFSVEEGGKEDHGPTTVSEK

Target: T1, Recombinant mouse CD30L (soluble, 6x histidine-tagged, R&D Systems) (mouse) (UniProt P32972)
T1 sequence (looked up): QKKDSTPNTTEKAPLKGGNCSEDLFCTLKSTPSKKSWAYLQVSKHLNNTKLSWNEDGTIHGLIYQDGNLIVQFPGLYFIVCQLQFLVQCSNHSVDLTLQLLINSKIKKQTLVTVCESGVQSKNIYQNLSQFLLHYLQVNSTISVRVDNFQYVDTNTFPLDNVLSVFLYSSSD
Experiment: scintillation proximity assay, Fc fusion on protein A FlashPlate, 150 pM mouse 125I-CD30L with or without unlabelled CD30L

Q: Which binding does the source give for “Recombinant mouse CD30-Fc (R&D Systems) (from UniProt Q60846 19-281) (Fc fusion)” here?
A: The binding was “binds”.
